Measurements reported in PubChem BioAssay AID1053208 (Peter MacCallum Cancer Centre, 2014)
The whole screen tested about 17,000 reagents; this is a random part of them. Over the whole deposit, 788 (4.7%) got an active call. 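Calls rest on z-score classes alone; an extra cut-off of viability at most 70% of control was not applied to them.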 The numbers tell different reagents against one gene apart. Not all columns of the deposit are shown.

Purpose: 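Genes whose silencing cuts survival of bone tumour cells only with doxorubicin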 (primary screen)
Cell system: mouse osteosarcoma cells, early-passage culture from an engineered mouse model of fibroblastic bone tumour
Reagent: siRNA pool against mouse genes, 40 nM
Duration: about 120 h (48 h before drug, then 72 h with drug)
Challenge: doxorubicin 100 nM for 72 h, roughly 30-40% inhibitory dose
Measurement: 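Viability read as ATP luminescence after 72 h of 100 nM doxorubicin or none, duplicate wells averaged, scaled to non-targeting siRNA, then expressed as robust z-scores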
Reading the numbers: viability z-score with doxorubicin: higher = more viable cells under doxorubicin; viability z-score without drug: higher = more viable cells with knock-down alone
Active means: 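a pool counts as active when its viability z-score with doxorubicin is -2 or below and its z-score without drug lies between -2 and 2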

no.	gene symbol	pool no.	combined z-score class	viability z-score with doxorubicin	viability z-score without drug	Outcome
1	Plch2	1	no change with or without drug	0	0	inactive
2	Or6d14	1	no change with or without drug	-0.67	0.51	inactive
3	Srbd1	1	no change with or without drug	-0.22	-0.17	inactive
4	Or8k53	1	no change with or without drug	-0.45	-1.01	inactive
5	Ptprk	1	no change with or without drug	0	-1.18	inactive
6	Btg4	1	no change with or without drug	0.56	-1.01	inactive
7	Parp8	1	no change with or without drug	1.12	1.52	inactive
8	Gm10128	1	no change with or without drug	1.57	0.84	inactive
9	Tmod4	1	no change with or without drug	-0.67	0.17	inactive
10	Baz1b	1	no change with or without drug	1.57	-0.51	inactive
11	Vps29	1	no change with or without drug	0.56	0.84	inactive
12	Marveld1	1	low cell count with doxorubicin only	-3.15	-1.85	active
13	Amn	1	no change with or without drug	-1.01	-0.17	inactive
14	Nlrx1	1	no change with or without drug	-0.67	0	inactive
15	A630038E17Rik	1	no change with or without drug	0.11	0.51	inactive
16	Cct5	1	low cell count without drug only	-1.8	-2.53	inactive
17	Acat2	1	no change with or without drug	-0.22	-1.18	inactive
18	Slitrk4	1	no change with or without drug	-0.79	-1.52	inactive
19	Notch3	1	no change with or without drug	0.67	-0.84	inactive
20	Pam16	1	no change with or without drug	-1.57	-1.52	inactive
21	Trappc14	1	no change with or without drug	1.69	0.51	inactive
22	Arhgef3	1	no change with or without drug	-0.45	1.01	inactive
23	Prom1	1	no change with or without drug	0.79	0.51	inactive
24	Bag2	1	high cell count without drug only	0.79	2.19	inactive
25	Wdr13	1	no change with or without drug	-1.91	1.69	inactive
26	Or5e1	1	no change with or without drug	-0.9	-0.84	inactive
27	Akap9	1	no change with or without drug	0.11	1.52	inactive
28	Sertad3	1	no change with or without drug	1.35	1.01	inactive
29	Fbxo36	1	no change with or without drug	0	0.51	inactive
30	Atp5mf	1	no change with or without drug	0.45	0.17	inactive
31	Gulo	1	no change with or without drug	0.22	0.17	inactive
32	Pde4dip	1	no change with or without drug	0.45	0.34	inactive
33	Pde4dip	2	no change with or without drug	-0.9	0.84	inactive
34	Pde4dip	3	no change with or without drug	0	1.52	inactive

In a second layout: entries from further up
gene symbol,pool no.,combined z-score class,viability z-score with doxorubicin,viability z-score without drug,Outcome
Trappc14,1,no change with or without drug,1.69,0.51,inactive
Arhgef3,1,no change with or without drug,-0.45,1.01,inactive
Prom1,1,no change with or without drug,0.79,0.51,inactive
